The test relates to B6C3F1 mice, colon carcinoma 38 s.c., T/C. The test is described as follows: NCI In Vivo Anticancer Drug Screen. Data for tumor model Colon Carcinoma 38 (subcutaneous) in B6C3F1 mice. As to conditions: T/C endpoint: median tumor weight (est.), schedule: Q07DX002 (ip), vehicle: water, higher T/C = larger tumour; for T/C: evaluated on day 20. The procedure: The antitumor activity of compounds was measured in mice bearing transplantable tumors. Survival or tumor size were measured and the results are expressed as the measurement made in the treated group (T) divided by the measurement made in the vehicle treated control group (C). The tumor model used in this assay is Colon Carcinoma 38 (subcutaneous) in B6C3F1 mice

The list is a part of this screen's results and no random one: it gathers some chemical classes. Other doses and runs of a compound may be missing. T/C: endpoint of the treated group in % of that of the vehicle group. Schedules are NCI's codes, taken here to give the interval after Q, in days (D) or hours (H), and the number of doses after X. Some doses have a count of surviving animals in place of a T/C: the source files T/C as zero there, which appears to mark a toxic dose or a test without result, not a measured value. Survivors were counted at the toxicity check; its day is shown where the source gives one, and later deaths do not show.

Consider `NC1CCCCC1.NP(=O)(O)N(CCCl)CCCl`, for which the T/C reads like this: (dose: 50.0 mg/kg/injection) 40 % of control; (dose: 100.0 mg/kg/injection) 7 % of control. The survivor count runs as follows: (dose: 200.0 mg/kg/injection) 0 of 10 on day 20; (dose: 400.0 mg/kg/injection) 0 of 10 on day 20.

Values taken from PubChem BioAssay AID214 (DTP/NCI, 2004).
